Reference: the supplement of paper PMC12823440, “Inhibitors supercharge kinase turnover through native proteolytic circuits” (Nature, 2025)
Where a name gives a salt, the structure may show the parent alone. The list shows a part of the results. Hit calls seldom repeat between salt and free forms of one compound.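 Kinases were expressed as nanoluciferase fusions in K562 cells and luminescence was read every 4 h between 2 and 18 h as percent of control, DMSO set to 100% and a positive control to 0%. A time point counts as decreased when the signal drops significantly (2 sigma). The hit call is the authors' own, does not follow from the count of time points alone, and its rule is not shown.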

By UniProt entry, the sequences of proteins in these tests, tags left out. Where a name states a change or a piece, a line headed by the entry shows the natural chain unless it says otherwise.
UniProt P00519, whole entry: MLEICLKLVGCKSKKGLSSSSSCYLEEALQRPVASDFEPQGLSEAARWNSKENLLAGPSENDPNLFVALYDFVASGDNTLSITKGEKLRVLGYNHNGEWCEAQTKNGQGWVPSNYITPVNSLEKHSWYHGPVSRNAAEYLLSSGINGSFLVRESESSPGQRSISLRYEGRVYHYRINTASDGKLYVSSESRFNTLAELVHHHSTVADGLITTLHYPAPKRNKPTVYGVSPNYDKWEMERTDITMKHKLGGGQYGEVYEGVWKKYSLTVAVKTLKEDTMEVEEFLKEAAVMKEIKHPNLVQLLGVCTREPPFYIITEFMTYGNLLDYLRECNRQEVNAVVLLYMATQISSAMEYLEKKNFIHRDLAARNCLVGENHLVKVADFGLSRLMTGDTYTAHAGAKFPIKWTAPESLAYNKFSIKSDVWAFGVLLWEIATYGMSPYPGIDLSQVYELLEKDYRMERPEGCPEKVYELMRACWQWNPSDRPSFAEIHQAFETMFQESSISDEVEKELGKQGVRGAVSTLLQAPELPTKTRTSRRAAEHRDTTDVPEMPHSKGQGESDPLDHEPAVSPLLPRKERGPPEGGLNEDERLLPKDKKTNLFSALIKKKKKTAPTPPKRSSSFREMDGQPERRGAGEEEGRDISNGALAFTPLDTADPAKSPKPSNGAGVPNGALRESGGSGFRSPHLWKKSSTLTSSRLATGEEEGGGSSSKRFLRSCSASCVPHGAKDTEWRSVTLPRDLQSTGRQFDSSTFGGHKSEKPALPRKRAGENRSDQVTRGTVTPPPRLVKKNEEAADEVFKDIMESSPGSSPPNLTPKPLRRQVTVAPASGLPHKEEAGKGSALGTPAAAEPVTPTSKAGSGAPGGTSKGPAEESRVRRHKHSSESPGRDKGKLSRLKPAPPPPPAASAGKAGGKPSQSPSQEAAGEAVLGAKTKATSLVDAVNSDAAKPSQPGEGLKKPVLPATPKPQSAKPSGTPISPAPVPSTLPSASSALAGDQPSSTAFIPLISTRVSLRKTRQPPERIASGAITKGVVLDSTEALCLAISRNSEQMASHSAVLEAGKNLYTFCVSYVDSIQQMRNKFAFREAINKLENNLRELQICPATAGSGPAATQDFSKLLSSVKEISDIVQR
UniProt P31749: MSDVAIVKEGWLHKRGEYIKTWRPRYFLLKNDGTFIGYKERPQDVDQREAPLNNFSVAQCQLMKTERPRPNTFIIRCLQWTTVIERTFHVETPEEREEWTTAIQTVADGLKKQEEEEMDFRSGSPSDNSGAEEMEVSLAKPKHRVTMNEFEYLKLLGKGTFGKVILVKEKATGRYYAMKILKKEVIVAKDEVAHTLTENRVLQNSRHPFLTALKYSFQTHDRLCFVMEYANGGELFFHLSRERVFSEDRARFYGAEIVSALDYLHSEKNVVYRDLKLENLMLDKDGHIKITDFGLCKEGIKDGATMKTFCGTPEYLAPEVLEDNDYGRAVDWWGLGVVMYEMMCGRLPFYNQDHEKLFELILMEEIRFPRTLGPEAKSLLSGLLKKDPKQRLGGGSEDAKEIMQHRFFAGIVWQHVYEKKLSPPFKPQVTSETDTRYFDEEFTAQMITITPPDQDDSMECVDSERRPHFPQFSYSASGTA
UniProt Q9UM73: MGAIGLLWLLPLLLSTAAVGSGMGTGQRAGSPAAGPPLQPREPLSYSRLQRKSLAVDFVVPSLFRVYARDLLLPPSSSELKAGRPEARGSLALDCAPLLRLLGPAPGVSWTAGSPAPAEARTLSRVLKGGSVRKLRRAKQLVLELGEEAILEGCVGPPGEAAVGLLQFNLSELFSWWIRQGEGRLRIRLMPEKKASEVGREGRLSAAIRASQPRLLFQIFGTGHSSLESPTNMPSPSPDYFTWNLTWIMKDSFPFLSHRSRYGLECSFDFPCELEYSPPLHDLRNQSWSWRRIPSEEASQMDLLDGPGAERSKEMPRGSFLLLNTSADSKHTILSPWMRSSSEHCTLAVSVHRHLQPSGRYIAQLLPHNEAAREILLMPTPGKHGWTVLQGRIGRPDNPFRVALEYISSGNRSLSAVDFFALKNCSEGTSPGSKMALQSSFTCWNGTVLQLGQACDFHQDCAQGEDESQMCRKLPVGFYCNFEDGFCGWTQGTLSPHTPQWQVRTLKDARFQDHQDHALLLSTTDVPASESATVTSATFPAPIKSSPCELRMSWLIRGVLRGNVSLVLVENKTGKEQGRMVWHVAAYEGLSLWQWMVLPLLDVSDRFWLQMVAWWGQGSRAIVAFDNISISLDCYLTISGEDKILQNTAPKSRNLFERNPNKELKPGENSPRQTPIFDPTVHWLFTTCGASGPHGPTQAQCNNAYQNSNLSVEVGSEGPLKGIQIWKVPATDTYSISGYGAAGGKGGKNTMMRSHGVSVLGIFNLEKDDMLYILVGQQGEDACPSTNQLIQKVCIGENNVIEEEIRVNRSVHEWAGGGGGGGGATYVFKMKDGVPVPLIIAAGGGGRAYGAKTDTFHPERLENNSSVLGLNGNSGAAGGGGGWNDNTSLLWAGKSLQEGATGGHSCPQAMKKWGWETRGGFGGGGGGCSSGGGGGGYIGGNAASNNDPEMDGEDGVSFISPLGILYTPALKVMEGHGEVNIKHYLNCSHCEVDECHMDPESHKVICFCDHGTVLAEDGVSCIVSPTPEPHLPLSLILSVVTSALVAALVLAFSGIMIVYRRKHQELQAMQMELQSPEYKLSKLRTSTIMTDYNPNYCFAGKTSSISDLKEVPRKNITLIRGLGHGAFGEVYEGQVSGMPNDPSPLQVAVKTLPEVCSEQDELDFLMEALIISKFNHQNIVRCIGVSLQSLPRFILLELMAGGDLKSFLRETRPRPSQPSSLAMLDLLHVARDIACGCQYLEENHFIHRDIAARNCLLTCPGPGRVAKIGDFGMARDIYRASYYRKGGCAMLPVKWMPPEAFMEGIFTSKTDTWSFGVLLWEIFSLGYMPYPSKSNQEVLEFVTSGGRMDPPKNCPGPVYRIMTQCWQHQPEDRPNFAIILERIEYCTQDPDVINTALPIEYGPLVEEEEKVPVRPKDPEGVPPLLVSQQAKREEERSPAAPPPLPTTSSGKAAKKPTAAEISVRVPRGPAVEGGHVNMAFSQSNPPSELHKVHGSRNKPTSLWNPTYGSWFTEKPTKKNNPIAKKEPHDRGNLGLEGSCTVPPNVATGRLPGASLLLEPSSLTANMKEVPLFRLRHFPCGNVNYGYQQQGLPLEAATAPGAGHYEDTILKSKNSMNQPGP
UniProt P10398: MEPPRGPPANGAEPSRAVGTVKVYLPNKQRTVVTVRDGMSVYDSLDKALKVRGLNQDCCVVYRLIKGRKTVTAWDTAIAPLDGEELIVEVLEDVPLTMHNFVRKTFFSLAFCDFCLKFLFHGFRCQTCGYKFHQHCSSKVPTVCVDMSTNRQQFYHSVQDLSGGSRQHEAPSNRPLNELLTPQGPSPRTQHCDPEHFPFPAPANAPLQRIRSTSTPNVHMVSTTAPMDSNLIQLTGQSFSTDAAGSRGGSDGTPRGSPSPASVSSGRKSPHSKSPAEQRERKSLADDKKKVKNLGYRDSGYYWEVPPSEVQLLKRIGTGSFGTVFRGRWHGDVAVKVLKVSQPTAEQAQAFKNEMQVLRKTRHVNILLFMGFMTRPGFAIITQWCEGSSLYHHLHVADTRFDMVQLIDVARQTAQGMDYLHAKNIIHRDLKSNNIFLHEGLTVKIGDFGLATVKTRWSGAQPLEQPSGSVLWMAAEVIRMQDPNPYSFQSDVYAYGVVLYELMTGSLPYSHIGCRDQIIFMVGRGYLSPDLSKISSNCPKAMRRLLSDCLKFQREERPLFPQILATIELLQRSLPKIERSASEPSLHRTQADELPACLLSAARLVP
UniProt Q96GD4, whole entry: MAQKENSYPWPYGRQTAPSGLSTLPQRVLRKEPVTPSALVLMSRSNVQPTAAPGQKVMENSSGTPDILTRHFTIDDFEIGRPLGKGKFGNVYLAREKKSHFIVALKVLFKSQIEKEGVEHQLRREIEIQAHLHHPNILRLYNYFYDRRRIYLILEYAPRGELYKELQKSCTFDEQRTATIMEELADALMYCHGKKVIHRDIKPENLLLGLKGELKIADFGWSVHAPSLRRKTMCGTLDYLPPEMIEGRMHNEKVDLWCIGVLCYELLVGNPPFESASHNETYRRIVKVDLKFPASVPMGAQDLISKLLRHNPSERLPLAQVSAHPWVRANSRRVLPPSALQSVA
UniProt Q9UQB9: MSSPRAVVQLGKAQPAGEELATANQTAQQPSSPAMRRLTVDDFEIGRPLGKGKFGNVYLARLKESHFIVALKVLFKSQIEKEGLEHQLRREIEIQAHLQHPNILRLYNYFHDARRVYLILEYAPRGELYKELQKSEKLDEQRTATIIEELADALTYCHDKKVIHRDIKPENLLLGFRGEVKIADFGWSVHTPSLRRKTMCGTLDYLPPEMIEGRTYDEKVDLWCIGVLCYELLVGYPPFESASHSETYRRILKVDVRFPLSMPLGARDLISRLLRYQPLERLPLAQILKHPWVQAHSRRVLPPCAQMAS
UniProt P51813: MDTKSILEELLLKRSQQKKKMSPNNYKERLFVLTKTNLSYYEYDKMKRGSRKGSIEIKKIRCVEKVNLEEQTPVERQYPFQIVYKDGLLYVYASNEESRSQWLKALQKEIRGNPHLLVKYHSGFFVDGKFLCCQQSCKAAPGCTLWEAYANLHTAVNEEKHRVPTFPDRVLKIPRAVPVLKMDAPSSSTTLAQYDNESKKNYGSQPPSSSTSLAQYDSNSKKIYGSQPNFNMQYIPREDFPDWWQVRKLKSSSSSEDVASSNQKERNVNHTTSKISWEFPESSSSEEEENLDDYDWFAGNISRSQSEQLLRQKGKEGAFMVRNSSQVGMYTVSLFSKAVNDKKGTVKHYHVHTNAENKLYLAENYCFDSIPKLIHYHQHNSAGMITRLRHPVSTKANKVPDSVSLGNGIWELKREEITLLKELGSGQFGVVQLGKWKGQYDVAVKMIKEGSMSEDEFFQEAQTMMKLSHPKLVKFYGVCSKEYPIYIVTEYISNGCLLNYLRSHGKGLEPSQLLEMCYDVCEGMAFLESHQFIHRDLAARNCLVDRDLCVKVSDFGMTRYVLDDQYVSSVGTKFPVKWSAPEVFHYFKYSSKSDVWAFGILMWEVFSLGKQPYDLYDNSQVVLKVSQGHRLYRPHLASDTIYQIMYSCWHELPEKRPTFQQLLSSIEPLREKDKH
UniProt P15056, whole entry, looked up: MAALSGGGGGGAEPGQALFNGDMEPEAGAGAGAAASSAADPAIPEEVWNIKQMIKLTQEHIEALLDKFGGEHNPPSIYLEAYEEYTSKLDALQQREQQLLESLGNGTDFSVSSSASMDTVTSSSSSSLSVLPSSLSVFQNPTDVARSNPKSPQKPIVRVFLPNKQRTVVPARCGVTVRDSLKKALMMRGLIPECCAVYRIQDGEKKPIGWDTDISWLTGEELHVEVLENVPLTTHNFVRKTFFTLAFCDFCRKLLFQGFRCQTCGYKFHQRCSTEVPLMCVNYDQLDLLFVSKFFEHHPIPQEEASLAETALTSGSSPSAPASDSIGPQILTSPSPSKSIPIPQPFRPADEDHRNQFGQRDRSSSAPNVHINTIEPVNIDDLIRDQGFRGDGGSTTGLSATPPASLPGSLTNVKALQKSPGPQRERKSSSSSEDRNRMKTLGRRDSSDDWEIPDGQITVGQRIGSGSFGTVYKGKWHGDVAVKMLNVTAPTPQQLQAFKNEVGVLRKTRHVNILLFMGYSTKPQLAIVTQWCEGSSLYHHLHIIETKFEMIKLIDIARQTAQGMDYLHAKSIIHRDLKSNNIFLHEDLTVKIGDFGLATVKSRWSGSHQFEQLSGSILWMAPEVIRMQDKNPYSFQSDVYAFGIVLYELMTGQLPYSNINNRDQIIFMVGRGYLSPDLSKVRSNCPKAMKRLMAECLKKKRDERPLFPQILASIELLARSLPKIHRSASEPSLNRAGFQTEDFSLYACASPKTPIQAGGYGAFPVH
UniProt O14965: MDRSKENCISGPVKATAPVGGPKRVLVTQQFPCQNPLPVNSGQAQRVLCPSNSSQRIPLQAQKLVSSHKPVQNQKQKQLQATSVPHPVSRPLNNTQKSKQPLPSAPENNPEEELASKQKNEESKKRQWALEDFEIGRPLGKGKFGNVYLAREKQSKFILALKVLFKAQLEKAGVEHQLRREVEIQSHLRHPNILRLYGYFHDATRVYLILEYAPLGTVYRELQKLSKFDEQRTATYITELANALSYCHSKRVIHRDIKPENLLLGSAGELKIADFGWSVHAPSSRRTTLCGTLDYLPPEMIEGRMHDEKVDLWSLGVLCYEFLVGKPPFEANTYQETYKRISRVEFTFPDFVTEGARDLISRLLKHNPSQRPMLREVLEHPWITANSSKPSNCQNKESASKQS

Columns and labels:
Test in all cases: kinase-Nluc reporter destabilization hit call (1 = scored as downregulated) (binary); higher = compound decreases kinase abundance
Details in all cases: K562, 2-18 h
ABL1 = ABL1 (UniProt P00519)
AKT1 = AKT1 (UniProt P31749)
ALK = ALK (UniProt Q9UM73)
ARAF = ARAF (UniProt P10398)
AURKB = AURKB (UniProt Q96GD4)
AURKC = AURKC (UniProt Q9UQB9)
BLK = BLK (UniProt P51451)
BMX = BMX (UniProt P51813)
BRAF = BRAF (UniProt P15056)
AURKA = AURKA (UniProt O14965)

Measured: kinase-Nluc reporter destabilization hit call

C[C@@H]1CN(C(=O)Nc2ccc(-c3nc(N4CCOCC4)c4cnn(CCCCCCC(=O)NO)c4n3)cc2)CCO1 [HDACs/mTOR Inhibitor 1]
inactive: ABL1; 10 µM 0 | AKT1; 10 µM 0 | ALK; 10 µM 0 | ARAF; 10 µM 0 | AURKB; 10 µM 0 | AURKC; 10 µM 0 | BLK; 10 µM 0 | BMX; 10 µM 0 | BRAF; 10 µM 0

O=C1NCCc2[nH]c(-c3ccncc3)cc21
inactive: ABL1; 2.5 µM 0 | AKT1; 2.5 µM 0 | ALK; 2.5 µM 0 | ARAF; 2.5 µM 0 | AURKA; 2.5 µM 0 | AURKB; 2.5 µM 0 | AURKC; 2.5 µM 0 | BMX; 2.5 µM 0 | BRAF; 2.5 µM 0

Cc1cc(C)n2c1C=C1C=CC(CCC(=O)NCCN3CCN(C/C=C/C(=O)N4CCCC(n5nc(-c6ccc(Oc7ccccc7)cc6)c6c(N)ncnc65)C4)CC3)=[N+]1[B-]2(F)F (stereo not given)
inactive: ABL1; 2.5 µM 0 | AKT1; 2.5 µM 0 | ALK; 2.5 µM 0 | ARAF; 2.5 µM 0 | AURKA; 2.5 µM 0 | AURKB; 2.5 µM 0 | AURKC; 2.5 µM 0 | BMX; 2.5 µM 0 | BRAF; 2.5 µM 0

CC(C)[C@@](C)(O)[C@@H]1CN(c2nc(-c3[nH]nc4ncccc34)c(F)cc2Cl)CCN1
inactive: ABL1; 10 µM 0 | AKT1; 10 µM 0 | ALK; 10 µM 0 | ARAF; 10 µM 0 | AURKA; 10 µM 0 | AURKB; 10 µM 0 | AURKC; 10 µM 0 | BLK; 10 µM 0 | BRAF; 10 µM 0

CC(C)N(CCC(=O)c1ccc2ccccc2c1)Cc1ccccc1
inactive: ABL1; 10 µM 0 | AKT1; 10 µM 0 | ALK; 10 µM 0 | ARAF; 10 µM 0 | AURKB; 10 µM 0 | AURKC; 10 µM 0 | BLK; 10 µM 0 | BMX; 10 µM 0 | BRAF; 10 µM 0

O=C(Nc1cccc(Cl)c1)Nc1ncc(CCNc2ncnc3ccsc23)s1 [SNS-314 (mesylate)]
inactive: ABL1; 10 µM 0 | AKT1; 10 µM 0 | ALK; 10 µM 0 | ARAF; 10 µM 0 | AURKB; 10 µM 0 | AURKC; 10 µM 0 | BMX; 10 µM 0

NC(=O)c1c(OCc2c(F)cc(Br)cc2F)nsc1NC(=O)NCCCCN1CCCC1
inactive: ABL1; 2.5 µM 0 | AKT1; 2.5 µM 0 | ALK; 2.5 µM 0 | ARAF; 2.5 µM 0 | AURKA; 2.5 µM 0 | AURKB; 2.5 µM 0 | AURKC; 2.5 µM 0 | BMX; 2.5 µM 0

C=CC(=O)N1C[C@@H](Nc2ncnc3[nH]ccc23)CC[C@H]1C [(2R,5S)-Ritlecitinib]
inactive: ABL1; 10 µM 0 | AKT1; 10 µM 0 | ALK; 10 µM 0 | ARAF; 10 µM 0 | AURKA; 10 µM 0 | AURKB; 10 µM 0 | AURKC; 10 µM 0 | BLK; 10 µM 0 | BRAF; 10 µM 0

COc1nccc(-c2c(-c3ccc(F)cc3)ncn2C2CCNCC2)n1
inactive: ABL1; 10 µM 0 | AKT1; 10 µM 0 | ALK; 10 µM 0 | ARAF; 10 µM 0 | AURKA; 10 µM 0 | AURKB; 10 µM 0 | AURKC; 10 µM 0 | BMX; 10 µM 0 | BRAF; 10 µM 0

NCCNc1ncc(C(N)=O)c(Nc2cccc(C(F)(F)F)c2)n1 [Syk Inhibitor II]
inactive: ABL1; 10 µM 0 | AKT1; 10 µM 0 | ALK; 10 µM 0 | ARAF; 10 µM 0 | AURKA; 10 µM 0 | AURKB; 10 µM 0 | BLK; 10 µM 0 | BMX; 10 µM 0 | BRAF; 10 µM 0

CCCOc1ccc(C=C2SC(=O)NC2=O)cc1
inactive: ABL1; 10 µM 0 | AKT1; 10 µM 0 | ALK; 10 µM 0 | ARAF; 10 µM 0 | AURKA; 10 µM 0 | AURKB; 10 µM 0 | AURKC; 10 µM 0 | BLK; 10 µM 0 | BRAF; 10 µM 0

Fc1ccc(-c2nc(-c3ccc4ccccc4c3F)[nH]c2-c2ccncc2)cc1
inactive: ABL1; 10 µM 0 | AKT1; 10 µM 0 | ALK; 10 µM 0 | ARAF; 10 µM 0 | AURKA; 10 µM 0 | AURKC; 10 µM 0 | BLK; 10 µM 0 | BMX; 10 µM 0 | BRAF; 10 µM 0

CCCCCC1CC1CC1CC1CCCCCCCC(=O)OC (stereo not given)
inactive: ABL1; 10 µM 0 | ALK; 10 µM 0 | ARAF; 10 µM 0 | AURKB; 10 µM 0 | AURKC; 10 µM 0 | BLK; 10 µM 0 | BMX; 10 µM 0 | BRAF; 10 µM 0

COc1cc(N2CCN(C)CC2)ccc1Nc1nccc(-c2cn(C)c3cnccc23)n1
inactive: ABL1; 10 µM 0 | AKT1; 10 µM 0 | ALK; 10 µM 0 | ARAF; 10 µM 0 | AURKA; 10 µM 0 | AURKB; 10 µM 0 | BLK; 10 µM 0 | BMX; 10 µM 0 | BRAF; 10 µM 0

N#CC(=Cc1cc(Cl)cc(Cl)c1)c1cccnc1
inactive: ABL1; 10 µM 0 | ALK; 10 µM 0 | AURKA; 10 µM 0 | AURKB; 10 µM 0 | BLK; 10 µM 0 | BMX; 10 µM 0 | BRAF; 10 µM 0

C[C@@]1(C(=O)Nc2ccc(F)nc2)CCCN1c1nc(Nc2cc(C3CC3)n[nH]2)c2cccn2n1
inactive: ABL1; 10 µM 0 | AKT1; 10 µM 0 | ARAF; 10 µM 0 | AURKA; 10 µM 0 | AURKB; 10 µM 0 | AURKC; 10 µM 0 | BLK; 10 µM 0 | BMX; 10 µM 0 | BRAF; 10 µM 0

Some of these compounds in order of count of non-hydrogen atoms, falling.
C[C@@]1(C(=O)Nc2ccc(F)nc2)CCCN1c1nc(Nc2cc(C3CC3)n[nH]2)c2cccn2n1
inactive: ABL1; 10 µM 0 | AKT1; 10 µM 0 | ARAF; 10 µM 0 | AURKA; 10 µM 0 | AURKB; 10 µM 0 | AURKC; 10 µM 0 | BLK; 10 µM 0 | BMX; 10 µM 0 | BRAF; 10 µM 0

NC(=O)c1c(OCc2c(F)cc(Br)cc2F)nsc1NC(=O)NCCCCN1CCCC1
inactive: ABL1; 2.5 µM 0 | AKT1; 2.5 µM 0 | ALK; 2.5 µM 0 | ARAF; 2.5 µM 0 | AURKA; 2.5 µM 0 | AURKB; 2.5 µM 0 | AURKC; 2.5 µM 0 | BMX; 2.5 µM 0

CC(C)[C@@](C)(O)[C@@H]1CN(c2nc(-c3[nH]nc4ncccc34)c(F)cc2Cl)CCN1
inactive: ABL1; 10 µM 0 | AKT1; 10 µM 0 | ALK; 10 µM 0 | ARAF; 10 µM 0 | AURKA; 10 µM 0 | AURKB; 10 µM 0 | AURKC; 10 µM 0 | BLK; 10 µM 0 | BRAF; 10 µM 0

Later entries.

Cc1ccc(O)cc1Nc1ccnc(Nc2cccc(C(N)=O)c2)n1 [Lck inhibitor 2]
inactive: ABL1; 10 µM 0 | AKT1; 10 µM 0 | ALK; 10 µM 0 | ARAF; 10 µM 0 | AURKA; 10 µM 0 | AURKB; 10 µM 0 | AURKC; 10 µM 0 | BLK; 10 µM 0 | BRAF; 10 µM 0

C=CC(=O)N1CCC[C@@H](n2nc(-c3ccc(Oc4ccccc4)cc3)c3c(N)ncnc32)C1 [Ibrutinib]
inactive: ABL1; 2.5 µM 0 | AKT1; 2.5 µM 0 | ALK; 2.5 µM 0 | ARAF; 2.5 µM 0 | AURKA; 2.5 µM 0 | AURKB; 2.5 µM 0 | AURKC; 2.5 µM 0 | BLK; 2.5 µM 0 | BRAF; 2.5 µM 0

C[C@@H]1O[C@@H](Oc2c(-c3ccc(O)c(O)c3)oc3cc(O)cc(O)c3c2=O)[C@H](O)[C@H](O)[C@H]1O [Quercitrin]
inactive: ABL1; 10 µM 0 | AKT1; 10 µM 0 | ALK; 10 µM 0 | ARAF; 10 µM 0 | AURKA; 10 µM 0 | AURKB; 10 µM 0 | BLK; 10 µM 0 | BMX; 10 µM 0 | BRAF; 10 µM 0

COc1cc(N2CCC(N3CCN(C)CC3)CC2)ccc1Nc1ncc(Cl)c(Nc2ccccc2S(=O)(=O)C(C)C)n1
inactive: ABL1; 2.5 µM 0 | AKT1; 2.5 µM 0 | ARAF; 2.5 µM 0 | AURKA; 2.5 µM 0 | AURKB; 2.5 µM 0 | AURKC; 2.5 µM 0 | BLK; 2.5 µM 0 | BRAF; 2.5 µM 0

CC[C@@H]1C(=O)N(C)c2cnc(Nc3ccc(C(=O)NC4CCN(C)CC4)cc3OC)nc2N1C1CCCC1
inactive: ABL1; 10 µM 0 | AKT1; 10 µM 0 | ALK; 10 µM 0 | ARAF; 10 µM 0 | AURKA; 10 µM 0 | AURKB; 10 µM 0 | AURKC; 10 µM 0 | BMX; 10 µM 0 | BRAF; 10 µM 0

COc1ccc(-c2cc3nccn3c(Nc3ncccc3C(N)=O)n2)cc1OC [BAY 61-3606 (dihydrochloride)]
inactive: ABL1; 2.5 µM 0 | AKT1; 2.5 µM 0 | ALK; 2.5 µM 0 | ARAF; 2.5 µM 0 | AURKA; 2.5 µM 0 | AURKB; 2.5 µM 0 | AURKC; 2.5 µM 0 | BMX; 2.5 µM 0 | BRAF; 2.5 µM 0

C=CC(=O)N1CCC([C@@H]2CCNc3c(C(N)=O)c(-c4ccc(Oc5ccccc5)cc4)nn32)CC1 [Zanubrutinib]
inactive: ABL1; 10 µM 0 | AKT1; 10 µM 0 | ALK; 10 µM 0 | ARAF; 10 µM 0 | AURKA; 10 µM 0 | AURKB; 10 µM 0 | AURKC; 10 µM 0 | BLK; 10 µM 0 | BRAF; 10 µM 0

CCCCCCCCCCCCc1ccc(S(=O)(=O)Nc2nncs2)cc1
inactive: ABL1; 10 µM 0 | ALK; 10 µM 0 | ARAF; 10 µM 0 | AURKB; 10 µM 0 | AURKC; 10 µM 0 | BLK; 10 µM 0 | BMX; 10 µM 0 | BRAF; 10 µM 0

Nc1ncccc1-c1nc2ccc(-c3ccccc3)nc2n1-c1ccc(C2(N)CCC2)cc1 [Miransertib]
inactive: ABL1; 10 µM 0 | ALK; 10 µM 0 | ARAF; 10 µM 0 | AURKA; 10 µM 0 | AURKB; 10 µM 0 | AURKC; 10 µM 0 | BLK; 10 µM 0 | BMX; 10 µM 0 | BRAF; 10 µM 0

O=C(Nc1cccc(Nc2nccc(Nc3cccc(C(F)(F)F)c3)n2)c1)C1CC1 [Aurora kinase inhibitor-3]
inactive: ABL1; 2.5 µM 0 | AKT1; 2.5 µM 0 | ALK; 2.5 µM 0 | ARAF; 2.5 µM 0 | AURKB; 2.5 µM 0 | AURKC; 2.5 µM 0 | BLK; 2.5 µM 0 | BMX; 2.5 µM 0 | BRAF; 2.5 µM 0

C=CC(=O)N(C)CCOc1c(N)ncnc1-c1cc(F)cc(NC(=O)c2ccc(C3CC3)cc2F)c1C [Remibrutinib]
inactive: ABL1; 10 µM 0 | AKT1; 10 µM 0 | ALK; 10 µM 0 | ARAF; 10 µM 0 | AURKA; 10 µM 0 | AURKB; 10 µM 0 | AURKC; 10 µM 0 | BLK; 10 µM 0 | BRAF; 10 µM 0

C[C@H]1Oc2cc(cnc2N)-c2c(nn(C)c2C#N)CN(C)C(=O)c2ccc(F)cc21 [Lorlatinib]
inactive: ABL1; 10 µM 0 | AKT1; 10 µM 0 | ARAF; 10 µM 0 | AURKA; 10 µM 0 | AURKB; 10 µM 0 | AURKC; 10 µM 0 | BLK; 10 µM 0 | BMX; 10 µM 0 | BRAF; 10 µM 0

COc1ccc(CNC(=O)Nc2ncc([N+](=O)[O-])s2)cc1
inactive: ABL1; 2.5 µM 0 | AKT1; 2.5 µM 0 | ALK; 2.5 µM 0 | ARAF; 2.5 µM 0 | AURKA; 2.5 µM 0 | AURKB; 2.5 µM 0 | AURKC; 2.5 µM 0 | BMX; 2.5 µM 0 | BRAF; 2.5 µM 0

CCc1cc2c(cc1-c1cnn(CC(=O)N(C)C)c1)C(C)(C)c1[nH]c3cc(C#N)ccc3c1C2=O
inactive: ABL1; 2.5 µM 0 | AKT1; 2.5 µM 0 | ALK; 2.5 µM 0 | ARAF; 2.5 µM 0 | AURKA; 2.5 µM 0 | AURKB; 2.5 µM 0 | AURKC; 2.5 µM 0 | BMX; 2.5 µM 0 | BRAF; 2.5 µM 0

Cn1cc(/C=C2\C(=O)Nc3cccnc32)c2ccccc21
inactive: ABL1; 10 µM 0 | AKT1; 10 µM 0 | ALK; 10 µM 0 | ARAF; 10 µM 0 | AURKA; 10 µM 0 | AURKB; 10 µM 0 | AURKC; 10 µM 0 | BMX; 10 µM 0 | BRAF; 10 µM 0

C[C@H]1CN(C2COC2)CCN1c1ccc(Nc2cc(-c3ccnc(N4CCn5c(cc6c5CC(C)(C)C6)C4=O)c3CO)cn(C)c2=O)nc1 [Fenebrutinib]
inactive: ABL1; 10 µM 0 | AKT1; 10 µM 0 | ALK; 10 µM 0 | ARAF; 10 µM 0 | AURKA; 10 µM 0 | AURKB; 10 µM 0 | AURKC; 10 µM 0 | BLK; 10 µM 0 | BRAF; 10 µM 0
